Source: patent US20150232546A1 (THROMBOGENICS, published 2015)
Changes are numbered by the printed parent chain. These are yes or no findings as the source states them, for the method shown.

What was measured:
Experiment in all cases: peptide ELISA
[1] = biological target: T1, human PDGF-C peptide no. 37 (human)
T1 sequence (peptide, N-terminally biotinylated): LEPERWQLDLEDLYR

[2] = biological target: T2, human PDGF-C peptide no. 40 (human)
T2 sequence (peptide, N-terminally biotinylated): PTWQLLGKAFVFGRK

[3] = biological target: T3, human PDGF-C peptide no. 56 (human)
T3 sequence (peptide, N-terminally biotinylated): PSKVTKKYHEVLQLR

[4] = biological target: T4, human PDGF-C peptide no. 45 (human)
T4 sequence (peptide, N-terminally biotinylated): EEVRLYSCTPRNFSV

[5] = biological target: T5, human PDGF-C peptide no. 9 (human)
T5 peptide: Biotin-FPHTYPRNTVLVWRL

[6] = biological target: T6, human PDGF-C peptide no. 25 (human)
T6 sequence (peptide, N-terminally biotinylated): RFVSDEYFPSEPGFC

[7] = biological target: T7, human PDGF-C peptide no. 62 (human)
T7 sequence (peptide, N-terminally biotinylated): ALEHHEECDCVCRGS

[8] = biological target: T8, human PDGF-C peptide no. 44 (human)
T8 sequence (peptide, N-terminally biotinylated): LNLLTEEVRLYSCTP

[9] = biological target: T9, human PDGF-C peptide no. 31 (human)
T9 sequence (peptide, N-terminally biotinylated): PSVLPPSALPLDLLN

[10] = biological target: T10, human PDGF-C peptide no. 30 (human)
T10 sequence (peptide, N-terminally biotinylated): TEAVSPSVLPPSALP

[11] = biological target: T11, human PDGF-C peptide no. 41 (human)
T11 sequence (peptide, N-terminally biotinylated): LGKAFVFGRKSRVVD

[12] = biological target: T12, human PDGF-C peptide no. 12 (human)
T12 sequence (peptide, N-terminally biotinylated): VAVEENVWIQLTFDE

[13] = biological target: T13, human PDGF-C peptide no. 60 (human)
T13 sequence (peptide, N-terminally biotinylated): RGLHKSLTDVALEHH

[14] = biological target: T14, human PDGF-C peptide no. 33 (human)
T14 sequence (peptide, N-terminally biotinylated): LDLLNNAITAFSTLE

[15] = biological target: T15, human PDGF-C peptide no. 20 (human)
T15 sequence (peptide, N-terminally biotinylated): TILGRWCGSGTVPGK

[16] = biological target: T16, human PDGF-C peptide no. 42 (human)
T16 sequence (peptide, N-terminally biotinylated): VFGRKSRVVDLNLLT

[17] = biological target: T17, human PDGF-C peptide no. 54 (human)
T17 sequence (peptide, N-terminally biotinylated): LHNCNECQCVPSKVT

[18] = biological target: T18, human PDGF-C peptide no. 50 (human)
T18 sequence (peptide, N-terminally biotinylated): TIFWPGCLLVKRCGG

[19] = biological target: T19, human PDGF-C peptide no. 5 (human)
T19 sequence (peptide, N-terminally biotinylated): DPQHERIITVSTNGS

[20] = biological target: T20, human PDGF-C peptide no. 14 (human)
T20 sequence (peptide, N-terminally biotinylated): LTFDERFGLEDPEDD

[21] = biological target: T21, human PDGF-C peptide no. 36 (human)
T21 sequence (peptide, N-terminally biotinylated): DLIRYLEPERWQLDL

[22] = biological target: T22, human PDGF-C peptide no. 22 (human)
T22 sequence (peptide, N-terminally biotinylated): TVPGKQISKGNQIRI

[23] = biological target: T23, human PDGF-C peptide no. 49 (human)
T23 sequence (peptide, N-terminally biotinylated): LKRTDTIFWPGCLLV

[24] = biological target: T24, human PDGF-C peptide no. 16 (human)
T24 sequence (peptide, N-terminally biotinylated): DPEDDICKYDFVEVE

[25] = biological target: T25, human PDGF-C peptide no. 57 (human)
T25 sequence (peptide, N-terminally biotinylated): KKYHEVLQLRPKTGV

[26] = biological target: T26, human PDGF-C peptide no. 17 (human)
T26 sequence (peptide, N-terminally biotinylated): ICKYDFVEVEEPSDG

[27] = biological target: T27, human PDGF-C peptide no. 10 (human)
T27 sequence (peptide, N-terminally biotinylated): PRNTVLVWRLVAVEE

[28] = biological target: T28, human PDGF-C peptide no. 7 (human)
T28 sequence (peptide, N-terminally biotinylated): STNGSIHSPRFPHTY

[29] = biological target: T29, human PDGF-C peptide no. 53 (human)
T29 sequence (peptide, N-terminally biotinylated): NCACCLHNCNECQCV

[30] = biological target: T30, human PDGF-C peptide no. 15 (human)
T30 sequence (peptide, N-terminally biotinylated): RFGLEDPEDDICKYD

[31] = biological target: T31, human PDGF-C peptide no. 24 (human)
T31 sequence (peptide, N-terminally biotinylated): NQIRIRFVSDEYFPS

[32] = biological target: T32, human PDGF-C peptide no. 34 (human)
T32 sequence (peptide, N-terminally biotinylated): NAITAFSTLEDLIRY

[33] = biological target: T33, human PDGF-C peptide no. 29 (human)
T33 sequence (peptide, N-terminally biotinylated): VMPQFTEAVSPSVLP

[34] = biological target: T34, human PDGF-C peptide no. 52 (human)
T34 sequence (peptide, N-terminally biotinylated): KRCGGNCACCLHNCN

[35] = biological target: T35, human PDGF-C peptide no. 43 (human)
T35 sequence (peptide, N-terminally biotinylated): SRVVDLNLLTEEVRL

[36] = biological target: T36, human PDGF-C peptide no. 35 (human)
T36 sequence (peptide, N-terminally biotinylated): FSTLEDLIRYLEPER

[37] = biological target: T37, human PDGF-C peptide no. 11 (human)
T37 sequence (peptide, N-terminally biotinylated): LVWRLVAVEENVWIQ

[38] = biological target: T38, human PDGF-C peptide no. 3 (human)
T38 sequence (peptide, N-terminally biotinylated): SSNKEQNGVQDPQHE

[39] = biological target: T39, human PDGF-C peptide no. 32 (human)
T39 sequence (peptide, N-terminally biotinylated): PSALPLDLLNNAITA

[40] = biological target: T40, human PDGF-C peptide no. 1 (human)
T40 sequence (peptide, N-terminally biotinylated): ESNLSSKFQFSSNKE

[41] = biological target: T41, human PDGF-C peptide no. 2 (human)
T41 sequence (peptide, N-terminally biotinylated): SKFQFSSNKEQNGVQ

[42] = biological target: T42, human PDGF-C peptide no. 47 (human)
T42 sequence (peptide, N-terminally biotinylated): RNFSVSIREELKRTD

[43] = biological target: T43, human PDGF-C peptide no. 51 (human)
T43 sequence (peptide, N-terminally biotinylated): GCLLVKRCGGNCACC

[44] = biological target: T44, human PDGF-C peptide no. 13 (human)
T44 sequence (peptide, N-terminally biotinylated): NVWIQLTFDERFGLE

[45] = biological target: T45, human PDGF-C peptide no. 19 (human)
T45 sequence (peptide, N-terminally biotinylated): EPSDGTILGRWCGSG

[46] = biological target: T46, human PDGF-C peptide no. 27 (human)
T46 peptide: Biotin-EPGFCIHYNIVMPQF

[47] = biological target: T47, human PDGF-C peptide no. 8 (human)
T47 sequence (peptide, N-terminally biotinylated): IHSPRFPHTYPRNTV

[48] = biological target: T48, human PDGF-C peptide no. 21 (human)
T48 sequence (peptide, N-terminally biotinylated): WCGSGTVPGKQISKG

Measured: binding

B1: anti-PDGF-C antibody 2D3 (antibody, IgG1, V domains shown)
VH: EVQLVESGGDLVKPGGSLKLSCAASGFTFSNYGMSWVRQTPDKRLEWVATIGSGGSYTYYPDSVKGRFTISRDSAKNTLYLQMSSLKSEDTAMYYCARQAPLWDYSDYWGQGTTLTVSS
VL: DVLMTQTPLSLPVSLGDQASISCRSNQTIVHSNGDTYLEWYLQKPGQSPNLLIYKVSNRFSGVPDRFSGSGSGTDFTLKISRVEAEDLGVYYCFQGSHVPPTFGGGTKLEIK
notes: Mouse monoclonal from hybridoma, IgG1, kappa; also called mAb 2D3; hybridoma LMBP 9483CB
no binding (tested: 1 µg/mL): [1] | [2] | [3] | [4] | [5] | [6] | [7] | [8] | [9] | [10] | [11] | [12] | [13] | [14] | [15] | [16] | [17] | [18] | [19] | [20] | [21] | [22] | [23] | [24] | [25] | [26] | [27] | [28] | [29] | [30] | [31] | [32] | [33] | [34] | [35] | [36] | [37] | [38] | [39] | [40] | [41] | [42] | [43] | [44] | [45] | [46] | [47] | [48]

B2: anti-PDGF-C antibody 16B1 (antibody, IgG1, V domains shown)
VH: B1 VH
VL: B1 VL with T28S, N50K
notes: Mouse monoclonal from hybridoma, IgG1, kappa; VH same as 2D3, VL same as 5A2; also called mAb 16B1; hybridoma LMBP 9486CB
no binding (tested: 1 µg/mL): [1] | [2] | [3] | [4] | [5] | [6] | [7] | [8] | [9] | [10] | [11] | [12] | [13] | [14] | [15] | [16] | [17] | [18] | [19] | [20] | [21] | [22] | [23] | [24] | [25] | [26] | [27] | [28] | [29] | [30] | [31] | [32] | [33] | [34] | [35] | [36] | [37] | [38] | [39] | [40] | [41] | [42] | [43] | [44] | [45] | [46] | [47] | [48]
